Consider 24 molecules from patent publication US20210395381A1.

These are yes or no findings as the source states them, for the method shown. A result given as binding can be weak or reduced; the word gives no strength.

B1: Clone 82 (VNAR)
VNAR: ARVDQTPQTITKETGESLTINCVLRDSNCDLSRTYWYRKKSGSTNEESISKGGRYVETVNSGSKSFSLRINDLVVEDSGTYRCNVYNPSSYTSVCDVYGGGTAVTVNA
B2: Clone 8 (VNAR)
VNAR: ARVDQTPQTITKETGESLTINCVLRDSNCALPSTYWYRKKSGSTNEESISKGGRYVETVNSGSKSFSLRINDLTVEDSGTYRCKVIAQLSSILRGCNYRKHDVYGDGTAVTVNA
B3: Clone 66 (VNAR)
chain: ARVDQTPQTITKETGESLTINCVLRDSICALSSTHWYRKKSGSTNQESISKGGRYVETVNSGSKSFSLRINDLTVEDSGTYRCNVVQKGRIKCSRMLEDVYGGGTVVTMNA
B4: Clone 64 (VNAR)
VNAR: ARVDQTPQTITKETGESLTINCVLRDSNCALSSTYWYRKKSGSTNEESISKGGRYVETVNSGSKSFSLRINDLTVEDSGTYRCNVQLQFDCKEWEDVYGGGTVVTVNA
B5: Clone 73 (VNAR)
VNAR: ARVDQTPQTITKETGESLTINCVLRDSNCALPSTYWYRKKSGSTNEESISKGGRYVETVNSGSKSFSLRINDLTVEDSGTYRCNVDGWSLCQELCDVYGGGTVVTVNT
B6: Clone 74 (VNAR)
VNAR: ARVDQTPRSVTKETGESLTINCVLRDASYALGSTCWYRKKSGSTNEESISKGGRYVETVNSGSKSFSLRINDLTVEDGGTYRCGVSLRGKTMRGECDYQVSVGLCGGQAAACGDGTAVTVNA
B7: Clone 79 (VNAR)
VNAR: ARVDQTPQTITKETGESLTINCVLRDSNCALSNLYWYRKKSGSTNEESISLGGRYVETVNSGSKSFSLRINDLTVEDSGTYRCKVSRRAQRLVSDDQSAWMDVYGGGTVVTVNA
B8: Clone 65 (VNAR)
VNAR: ARVDQTPRSVTKETGESLTINCVLRDSICALSSTHWYRKKSGSTNEESISKGGRYVETVNSGSKSFSLRINDLTVEDSGTYRCKVTVTKWCCKQRDGCTGDVYGGGTAVTVNA
B9: Clone 85 (VNAR)
VNAR: ARVDQTPQTITKETGESLTINCVLRADSNCELSSTYWYRKKSGSTNEARISKGGRYVETVNSGSKSFSLRINDLTVEDSGTYRCNVFAQRHCGYYRDVYGDGTAVTVNA
B10: Clone 61 (VNAR)
VNAR: ARVDQTPQTITKETGESLTINCVLRDSNCALSSTYWYRKKSDSTNEESISKGGRYVETVNSGSKSFSLKINDLTVEDSGTYRCKVLSVQRLFCAIFASEDVYGDGTAVTVNA
B11: Clone 62 (VNAR)
VNAR: ARVDQTPQTITKETGESLTINCVLRDSNCALSSTYQYRKKSGSTNEESISKGGRYVETVNSGSKSFSLRINDLTVKDSGTYRCNVLSVQRLFCAIFASEDVYGDGTAVTVNA
B12: Clone 71 (VNAR)
VNAR: ARVDQTPRSVTKETGESLTINCVLRDASYELGSTCWYRKKSGSTNEESISKGGRYVETVNSGSKSFSLRINDLTVEDGGTYRCGALIQSHRNGRCDGWFDICPTSLGGAACGDGTAVTVNA
B13: Clone 72 (VNAR)
VNAR: ARVDQTPQTVTKETGESLTINCVLRDSNCALPSTYWYRKKSGSTNEESISKGGRYVETVNSGSKSFSLRINDLTVEDSGTYRCNVIWLQVGVCDDYPYDVYGDGTAVTVNA
B14: Clone 48 (VNAR)
VNAR: ARVDQTPRSVTKETGESLTINCVLRDASYELGSTCWYRKKSGSTNEESISKGGRYVETVNSGSKSFSLRINDLTVEDGGTYRCGASFMLSHPGGCDSCVIMCQTRRQGVAACGDGTAVTVNA
B15: Clone 76 (VNAR)
VNAR: ARVDQTPQTVTKETGESLTINCVLRDSNCALSNLYWYRKKSGSTNEESISLGGRYVETVNSGSKSFSLKINDLTVEDSGTYRCNVPALQVCCDGTQLDVYGGGTAVTVNA
B16: Clone 75 (VNAR)
VNAR: ARVDQTPQTITKETGESLTINCVLRDSNCALPSTYWYRKKSDSTNEESISKGGRYVETVNSGSKSFSLRINDLVVEDSGTYRCNVMRLERCRQNGDVYGGGTAVTVNA
B17: Clone 77 (VNAR)
VNAR: ARVDQTPQTITKETGSLTINCVLRDSNCDLSRTYWYRKKSGSTNEESISKGGRYVETVNSGSKSFSLRINDLVVEDSGTYRCNVPVGHCCYCAGFDVYGDGTVVTVNA
B18: Clone 80 (VNAR)
VNAR: ARVDQTPQTITKETGESLTINCVLRDSNCALSNLYWYRKKSGSTNEESISKGGRYVETVNSGSKSFSLRINDLTVKDSGTYRCKVGAERYKSSWQCMGRSASDVYGGGTVVTVNA
B19: Clone 69 (VNAR)
VNAR: ARVDQTPQTITKETGESLTINCVLRDSNCALPITYWYRKKSGSTNEESISKGGRYVETVNSGSKSFSLRINDLTVKDSGTYRCNVPAQLLLYSGQQGVDVYGDGTVVTVNA
B20: Clone 68 (VNAR)
VNAR: PRVDQTPQTITKETGESLTINCVLRDSNCALPSTYWYRKKSGSTNEESISKGGRYVETVNSGSKSFSLRINDLTVEDSGTYRCNVSGGRGGVCWQGSDVYGGGTVVTVNA
B21: Clone 84 (VNAR)
VNAR: ARVDQTPQTITKETGESLTINCVLRDSNCALSNLYWYRKKSGSTNEESISLGGRYVETVNSGSKSFSLKINDLTVEDSGTYRCNVQLSNYYVDWYDVYGGGTVVTVNA
B22: Clone 78 (VNAR)
VNAR: ARVDQTPQTITKETGESLTINCVLRDSNCALPSTYWYRKKSGSTNEESISKGGRYVETVNSGSKSFSLRINDLTVKDSGTYRCNVFILGQLYGYDYLDVYGGGTAVTVNA
B23: Clone 63 (VNAR)
VNAR: ARVDQTPQTITKETGESLTINCVLRDSNCALPSTYWYRKKSGSTNEESISKGGRYVETVNSGSKSFSLKINDLTVEDSGTYRCKVANEYWLRLNQCFYLQHDVYGGGTVVTVNA
B24: Clone 67 (VNAR)
VNAR: ARVDQTPQTITKETGESLTINCVLRDNNCASSTTYWYRKKSGSTNEENISKGGRYVETVNSGSKSFSLKINDLTVEDSGTYRCNVRDVQACGNDWVWLDVYGGGTVVTVNA

This test addresses TfR-1 (species not stated at the place). As to the kind of experiment: phage ELISA.
Take B1: the binding entry is listed as “binds”.

Take B2: the binding entry is “binds”. Then B3, with “binds”; and B4, with “binds”. Next, B5: “binds”; B6: “binds”; B7: “binds”. Then B8, with “binds”; and B9, with “binds”; and B10, with “binds”. B11: the binding entry is “binds”.

Consider B12, for which the binding result is recorded as “binds”. Then B13, with “binds”; and B14, with “binds”. Next, B15: “binds”. Next, B16: “binds”. In the case of B17, the binding entry is given as “binds”.

Regarding B18, the binding result is “binds”. B19: the binding result was “binds”. With B20, the binding entry is on record as “binds”. Then B21, with “binds”; and B22, with “binds”. Next, B23: “binds”; B24: “binds”.
